Reference: doi:10.1101/755322 (bioRxiv, 2019)
No constants are given. Whether binding was seen depends on the method and setting.

Target: T1, hCCL5 F12A (human), P13501
T1 chain: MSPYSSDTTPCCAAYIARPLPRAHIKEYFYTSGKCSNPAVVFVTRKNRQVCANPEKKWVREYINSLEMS
Assay: NMR 1H-15N HSQC spectra
Conditions: remark: other sources report otherwise

B1: hCCL5 F12A, P13501 24-91 (protein)
chain: MSPYSSDTTPCCAAYIARPLPRAHIKEYFYTSGKCSNPAVVFVTRKNRQVCANPEKKWVREYINSLEMS
**Q.** Which binding does the source give for B1 here?
**A.** Its binding is “no binding”.
